Experimental data: PubChem BioAssay AID1224828 (NIAID, 2016)
Shown is an unselected part of about 17,000 reagents tested. Of all reagents, 762 (4.5%) are marked active. 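Active calls include both raised and lowered p65 entry, mostly lowered; wells with fewer than 50 cells lack a z-score.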 Raw values are not corrected between plates. Reagent sequences are not shown.

Aim: 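Regulators linking TLR4 signalling to p65 nuclear translocation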 (primary screen)
Cells: mouse RAW264.7 G9 macrophage reporter cells (GFP-p65, Tnf promoter-mCherry)
Reagent: siRNA pool against mouse genes, 100 nM
Timing: 2 days siRNA transfection, then 40 min LPS before fixation
Challenge: LPS (Salmonella minnesota R595) at 10 ng/ml
Measured: 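Imaged p65 nuclear translocation ratio, normalised to the plate median, converted to robust z-scores and averaged across two replicates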
Direction: p65 translocation robust z-score: higher = more nuclear NF-kappaB p65 after LPS than the plate median; nuclear/cytoplasmic p65 ratio: higher = more nuclear NF-kappaB p65
Hit rule: 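Active if robust z is above 3.3 (negative regulators) or below -1.56, the Tlr4 control median (positive regulators); activity score 50 or more; control wells not called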
Meaning of the calls: active = hit (p65 shift raised or lowered); inactive = no clear change

gene	p65 translocation robust z-score	nuclear/cytoplasmic p65 ratio, rep 1	nuclear/cytoplasmic p65 ratio, rep 2	low cell count flag	call
Spock3	1.8	1.72	1.38	enough cells to score	inactive
Nrsn1	-1.05	1.26	1.11	enough cells to score	inactive
Stc1	-0.25	1.37	1.21	enough cells to score	inactive
Slc37a4		1.94	1.19	fewer than 50 cells per well; well left out of scoring	inactive
Gpx8		1.43	1.45	fewer than 50 cells per well; well left out of scoring	inactive
Rph3a	0.89	1.56	1.3	enough cells to score	inactive
Pabpc5		1.4	1.22	fewer than 50 cells per well; well left out of scoring	inactive
Or5w11		0	1.29	fewer than 50 cells per well; well left out of scoring	inactive
Phc3	0.27	1.48	1.27	enough cells to score	inactive
Serpina1e	0.31	1.63	1.57	enough cells to score	inactive
Dppa3		1.26	1.39	fewer than 50 cells per well; well left out of scoring	inactive
Dact2	-1.6	1.33	1.32	enough cells to score	active
Nr2f1	1.65	1.63	1.67	enough cells to score	inactive
Tcp10b		0.951	1.02	fewer than 50 cells per well; well left out of scoring	inactive
Nrep	-0.19	1.57	1.73	enough cells to score	inactive
Polr2h	-0.36	1.25	1.25	enough cells to score	inactive
Rmdn1		1.29	1.27	fewer than 50 cells per well; well left out of scoring	inactive
Snx33	0.14	1.39	1.38	enough cells to score	inactive
Vmn1r201	-0.17	1.44	1.14	enough cells to score	inactive
Impdh1	0.43	1.48	1.49	enough cells to score	inactive
Sohlh2	1.76	1.37	1.52	enough cells to score	inactive
Armc9		1.08	1.16	fewer than 50 cells per well; well left out of scoring	inactive
Dcaf15		1.49	1.61	fewer than 50 cells per well; well left out of scoring	inactive
Wdr5	-1.45	1.31	1.39	enough cells to score	inactive
Gpr75	-1.18	1.31	1.44	enough cells to score	inactive
Fam111a		1.36	1.08	fewer than 50 cells per well; well left out of scoring	inactive
Tent5b		0.779	1.27	fewer than 50 cells per well; well left out of scoring	inactive
Snhg16		1.33	1	fewer than 50 cells per well; well left out of scoring	inactive
Mea1	-1	1.54	1.42	enough cells to score	inactive
Emg1	-0.11	1.72	1.54	enough cells to score	inactive
Mapre2	-0.44	1.39	1.29	enough cells to score	inactive
Qrfp	0.51	1.5	1.3	enough cells to score	inactive
Rev1	0.24	1.58	1.52	enough cells to score	inactive

Reagents listed above marked active (1):
gene	p65 translocation robust z-score	nuclear/cytoplasmic p65 ratio, rep 1	nuclear/cytoplasmic p65 ratio, rep 2	low cell count flag	call
Dact2	-1.6	1.33	1.32	enough cells to score	active

Additional results follow:
gene	p65 translocation robust z-score	nuclear/cytoplasmic p65 ratio, rep 1	nuclear/cytoplasmic p65 ratio, rep 2	low cell count flag	call
Tgfb3	-0.72	1.46	1.38	enough cells to score	inactive
Aldoc	-0.42	1.49	1.62	enough cells to score	inactive
Pde6d	-0.18	1.38	1.43	enough cells to score	inactive
Ca13	-1.53	1.34	1.56	enough cells to score	inactive
Fsaf1	-0.03	1.5	1.35	enough cells to score	inactive
Fundc1	0.39	1.55	1.55	enough cells to score	inactive
Fam50a		1.36	1.69	fewer than 50 cells per well; well left out of scoring	inactive
Ccdc59	1.05	1.67	2.03	enough cells to score	inactive
Hexb	-1.54	1.21	1.2	enough cells to score	inactive
Bbs5		1.37	1.6	fewer than 50 cells per well; well left out of scoring	inactive
Gm4814		1.46	1.41	fewer than 50 cells per well; well left out of scoring	inactive
Tvp23b	0.06	1.37	1.36	enough cells to score	inactive
Itih2	-1.14	1.42	1.25	enough cells to score	inactive
Slc5a4b	1.87	1.65	1.47	enough cells to score	inactive
Armc10	-0.62	1.34	1.35	enough cells to score	inactive
Gm14461	0.32	1.61	1.57	enough cells to score	inactive
Ldhal6b	-0.55	1.2	1.24	enough cells to score	inactive
Or4g16	0.54	1.69	1.5	enough cells to score	inactive
Gpatch4	1.64	1.61	1.68	enough cells to score	inactive
Vmn1r199		1.22	0.848	fewer than 50 cells per well; well left out of scoring	inactive
Prelid3b		1.24	1.28	fewer than 50 cells per well; well left out of scoring	inactive
Gm5105	-1.26	1.41	1.35	enough cells to score	inactive
Aloxe3	1.11	1.8	1.77	enough cells to score	inactive
Lilra6	-1	1.28	1.08	enough cells to score	inactive
Fxyd7	1.68	1.85	1.68	enough cells to score	inactive
Glra3	-1.2	1.26	1.24	enough cells to score	inactive
2410137M14Rik	-0.1	1.39	1.52	enough cells to score	inactive
Tmem81	0.78	1.36	1.26	enough cells to score	inactive
Sfswap	1.67	1.73	1.86	enough cells to score	inactive
Fam149b	0.57	1.82	1.39	enough cells to score	inactive
Msrb2	0.07	1.49	1.31	enough cells to score	inactive
Tma16	0.45	1.3	1.47	enough cells to score	inactive
1700029H14Rik		1.28	1.45	fewer than 50 cells per well; well left out of scoring	inactive
Srfbp1	0.05	1.36	1.51	enough cells to score	inactive
Magel2	2	1.96	1.9	enough cells to score	inactive
Noct	0.37	1.69	1.8	enough cells to score	inactive
Pitx3	-1.04	1.33	1.29	enough cells to score	inactive
Tdrp	-1.53	1.21	1.26	enough cells to score	inactive
Alg8	-1.35	1.35	1.54	enough cells to score	inactive
Rnase2b	0.72	1.52	1.49	enough cells to score	inactive
Cd28	-0.07	1.37	1.45	enough cells to score	inactive
Amigo2	-0.11	1.49	1.77	enough cells to score	inactive
